Experimental data published in the supplement of paper PMC10849652.
Some of the results follow.

Sequences of proteins named here, by UniProt entry; tags and fusion partners are left off. A change or cut given only in a name is not applied to a line headed by its entry.
UniProt P30740: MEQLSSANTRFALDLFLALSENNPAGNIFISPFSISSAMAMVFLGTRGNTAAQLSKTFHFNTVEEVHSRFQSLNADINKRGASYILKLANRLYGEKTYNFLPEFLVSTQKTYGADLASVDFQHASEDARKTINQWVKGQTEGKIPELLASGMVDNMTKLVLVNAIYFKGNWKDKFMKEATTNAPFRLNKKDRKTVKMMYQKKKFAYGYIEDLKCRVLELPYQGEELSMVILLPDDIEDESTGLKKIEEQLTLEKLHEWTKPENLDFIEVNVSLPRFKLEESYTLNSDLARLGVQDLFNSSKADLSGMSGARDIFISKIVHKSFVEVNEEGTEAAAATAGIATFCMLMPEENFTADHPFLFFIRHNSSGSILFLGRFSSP
UniProt Q14141: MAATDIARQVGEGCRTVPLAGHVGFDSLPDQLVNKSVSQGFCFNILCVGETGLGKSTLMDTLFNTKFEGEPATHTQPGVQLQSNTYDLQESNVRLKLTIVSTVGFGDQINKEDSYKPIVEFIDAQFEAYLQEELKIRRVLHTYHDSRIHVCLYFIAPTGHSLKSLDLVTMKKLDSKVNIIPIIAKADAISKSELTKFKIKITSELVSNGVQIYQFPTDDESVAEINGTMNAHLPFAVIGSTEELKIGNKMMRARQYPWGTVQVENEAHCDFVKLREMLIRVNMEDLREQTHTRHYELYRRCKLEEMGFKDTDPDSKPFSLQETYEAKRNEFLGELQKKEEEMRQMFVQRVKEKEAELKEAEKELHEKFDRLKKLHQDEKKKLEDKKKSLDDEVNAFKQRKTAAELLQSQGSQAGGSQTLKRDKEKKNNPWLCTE
UniProt Q92599: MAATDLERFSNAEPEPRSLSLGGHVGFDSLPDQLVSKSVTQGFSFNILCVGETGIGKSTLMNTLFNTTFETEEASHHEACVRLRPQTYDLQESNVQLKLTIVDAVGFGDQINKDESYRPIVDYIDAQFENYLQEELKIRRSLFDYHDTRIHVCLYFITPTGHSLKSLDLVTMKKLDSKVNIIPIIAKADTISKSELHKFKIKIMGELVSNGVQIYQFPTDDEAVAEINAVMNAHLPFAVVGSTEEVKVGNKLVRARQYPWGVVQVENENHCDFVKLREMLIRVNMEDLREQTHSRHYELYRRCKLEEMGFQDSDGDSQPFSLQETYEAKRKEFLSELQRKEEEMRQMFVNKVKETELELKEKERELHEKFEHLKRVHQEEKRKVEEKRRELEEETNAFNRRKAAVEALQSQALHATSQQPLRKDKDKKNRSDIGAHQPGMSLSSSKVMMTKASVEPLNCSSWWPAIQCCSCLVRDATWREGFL
UniProt Q96EB6: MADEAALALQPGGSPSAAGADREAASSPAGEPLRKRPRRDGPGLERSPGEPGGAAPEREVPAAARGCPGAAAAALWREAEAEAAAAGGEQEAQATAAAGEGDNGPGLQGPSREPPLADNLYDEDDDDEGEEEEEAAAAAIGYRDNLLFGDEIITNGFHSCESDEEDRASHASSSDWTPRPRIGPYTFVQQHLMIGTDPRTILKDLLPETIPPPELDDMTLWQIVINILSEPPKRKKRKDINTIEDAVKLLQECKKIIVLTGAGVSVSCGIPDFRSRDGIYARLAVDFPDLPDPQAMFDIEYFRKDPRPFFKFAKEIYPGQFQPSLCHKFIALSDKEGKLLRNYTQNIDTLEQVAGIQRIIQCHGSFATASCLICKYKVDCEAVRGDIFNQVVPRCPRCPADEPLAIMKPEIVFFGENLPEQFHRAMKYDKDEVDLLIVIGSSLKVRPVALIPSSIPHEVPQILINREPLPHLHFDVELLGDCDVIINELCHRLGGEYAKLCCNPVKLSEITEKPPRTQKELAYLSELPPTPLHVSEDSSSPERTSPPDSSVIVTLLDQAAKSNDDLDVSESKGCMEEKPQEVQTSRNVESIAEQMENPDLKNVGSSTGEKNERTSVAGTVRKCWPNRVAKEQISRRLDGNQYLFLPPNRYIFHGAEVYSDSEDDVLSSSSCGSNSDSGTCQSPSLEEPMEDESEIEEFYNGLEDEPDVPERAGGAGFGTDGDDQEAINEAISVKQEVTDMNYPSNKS
UniProt Q15019: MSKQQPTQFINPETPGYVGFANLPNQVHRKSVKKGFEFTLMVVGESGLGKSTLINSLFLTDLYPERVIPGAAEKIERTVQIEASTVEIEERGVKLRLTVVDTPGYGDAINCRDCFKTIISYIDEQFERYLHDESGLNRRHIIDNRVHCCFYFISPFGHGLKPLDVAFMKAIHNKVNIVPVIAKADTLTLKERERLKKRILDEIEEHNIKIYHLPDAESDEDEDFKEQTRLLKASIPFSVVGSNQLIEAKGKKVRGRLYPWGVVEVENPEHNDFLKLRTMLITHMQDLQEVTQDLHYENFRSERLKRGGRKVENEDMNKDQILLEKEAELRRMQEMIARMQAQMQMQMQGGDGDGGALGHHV
UniProt O43236: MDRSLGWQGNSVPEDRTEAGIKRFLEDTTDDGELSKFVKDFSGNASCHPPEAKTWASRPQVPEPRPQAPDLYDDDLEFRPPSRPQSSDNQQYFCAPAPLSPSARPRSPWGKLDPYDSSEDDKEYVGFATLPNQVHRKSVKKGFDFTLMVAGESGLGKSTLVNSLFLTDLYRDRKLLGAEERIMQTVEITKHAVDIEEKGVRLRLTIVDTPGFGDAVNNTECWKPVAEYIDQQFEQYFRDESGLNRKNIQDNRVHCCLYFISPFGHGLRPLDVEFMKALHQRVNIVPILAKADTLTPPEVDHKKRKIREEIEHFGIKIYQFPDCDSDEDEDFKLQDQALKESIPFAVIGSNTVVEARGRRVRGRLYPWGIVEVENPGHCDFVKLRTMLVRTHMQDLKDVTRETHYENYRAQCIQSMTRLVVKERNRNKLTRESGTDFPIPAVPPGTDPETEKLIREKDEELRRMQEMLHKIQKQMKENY
UniProt Q9H299: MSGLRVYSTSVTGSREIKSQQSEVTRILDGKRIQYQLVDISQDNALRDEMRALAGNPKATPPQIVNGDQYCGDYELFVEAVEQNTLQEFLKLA
UniProt Q9HAT2: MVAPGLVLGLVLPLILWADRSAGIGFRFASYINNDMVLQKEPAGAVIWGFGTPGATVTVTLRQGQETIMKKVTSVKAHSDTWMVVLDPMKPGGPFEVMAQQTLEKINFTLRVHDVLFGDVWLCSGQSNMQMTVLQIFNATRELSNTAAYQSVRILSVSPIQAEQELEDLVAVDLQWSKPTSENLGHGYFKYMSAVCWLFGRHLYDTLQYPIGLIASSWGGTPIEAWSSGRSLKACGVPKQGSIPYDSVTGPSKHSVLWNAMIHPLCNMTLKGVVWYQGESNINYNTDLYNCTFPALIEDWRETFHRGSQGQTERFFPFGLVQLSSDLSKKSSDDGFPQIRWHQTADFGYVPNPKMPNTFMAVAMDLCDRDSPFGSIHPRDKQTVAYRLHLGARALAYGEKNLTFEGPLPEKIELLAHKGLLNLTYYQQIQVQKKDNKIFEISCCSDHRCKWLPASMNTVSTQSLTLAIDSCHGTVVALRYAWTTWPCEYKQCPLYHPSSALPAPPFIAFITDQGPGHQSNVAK
UniProt Q5FBB7: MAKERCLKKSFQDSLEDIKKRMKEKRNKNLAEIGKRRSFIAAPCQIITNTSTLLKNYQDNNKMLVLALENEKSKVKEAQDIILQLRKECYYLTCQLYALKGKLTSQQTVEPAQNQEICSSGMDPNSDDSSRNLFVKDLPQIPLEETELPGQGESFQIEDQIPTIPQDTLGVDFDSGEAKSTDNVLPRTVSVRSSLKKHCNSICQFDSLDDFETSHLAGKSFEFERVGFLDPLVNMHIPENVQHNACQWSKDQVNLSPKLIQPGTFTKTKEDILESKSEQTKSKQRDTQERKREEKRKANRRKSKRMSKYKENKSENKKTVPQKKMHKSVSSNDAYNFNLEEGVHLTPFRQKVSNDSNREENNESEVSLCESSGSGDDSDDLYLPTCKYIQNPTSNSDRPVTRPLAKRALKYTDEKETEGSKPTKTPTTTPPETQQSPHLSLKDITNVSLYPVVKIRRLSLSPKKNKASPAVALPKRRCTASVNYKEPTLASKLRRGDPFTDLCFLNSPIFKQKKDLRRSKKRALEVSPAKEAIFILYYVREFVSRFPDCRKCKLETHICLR
UniProt Q15428: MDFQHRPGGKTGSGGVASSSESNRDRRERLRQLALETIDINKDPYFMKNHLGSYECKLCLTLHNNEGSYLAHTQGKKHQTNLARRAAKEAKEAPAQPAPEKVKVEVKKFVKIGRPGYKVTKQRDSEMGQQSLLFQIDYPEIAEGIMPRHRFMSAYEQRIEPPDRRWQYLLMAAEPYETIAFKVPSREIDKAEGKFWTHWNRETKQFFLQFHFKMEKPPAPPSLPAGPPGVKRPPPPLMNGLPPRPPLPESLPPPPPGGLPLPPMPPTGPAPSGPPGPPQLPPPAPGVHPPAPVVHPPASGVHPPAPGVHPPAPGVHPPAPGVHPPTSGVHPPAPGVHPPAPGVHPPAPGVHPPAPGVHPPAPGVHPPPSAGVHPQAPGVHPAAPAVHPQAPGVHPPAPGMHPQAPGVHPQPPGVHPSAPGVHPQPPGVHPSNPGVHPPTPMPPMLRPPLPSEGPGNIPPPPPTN
UniProt Q96NB2: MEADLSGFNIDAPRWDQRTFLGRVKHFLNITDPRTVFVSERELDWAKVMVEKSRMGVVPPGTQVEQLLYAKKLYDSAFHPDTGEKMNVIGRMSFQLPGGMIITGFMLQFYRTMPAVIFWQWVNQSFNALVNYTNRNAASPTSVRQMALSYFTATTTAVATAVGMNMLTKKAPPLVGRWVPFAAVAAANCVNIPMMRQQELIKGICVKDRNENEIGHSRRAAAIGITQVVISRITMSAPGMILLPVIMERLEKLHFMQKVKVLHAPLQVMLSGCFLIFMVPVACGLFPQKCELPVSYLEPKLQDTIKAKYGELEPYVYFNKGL
UniProt Q99574: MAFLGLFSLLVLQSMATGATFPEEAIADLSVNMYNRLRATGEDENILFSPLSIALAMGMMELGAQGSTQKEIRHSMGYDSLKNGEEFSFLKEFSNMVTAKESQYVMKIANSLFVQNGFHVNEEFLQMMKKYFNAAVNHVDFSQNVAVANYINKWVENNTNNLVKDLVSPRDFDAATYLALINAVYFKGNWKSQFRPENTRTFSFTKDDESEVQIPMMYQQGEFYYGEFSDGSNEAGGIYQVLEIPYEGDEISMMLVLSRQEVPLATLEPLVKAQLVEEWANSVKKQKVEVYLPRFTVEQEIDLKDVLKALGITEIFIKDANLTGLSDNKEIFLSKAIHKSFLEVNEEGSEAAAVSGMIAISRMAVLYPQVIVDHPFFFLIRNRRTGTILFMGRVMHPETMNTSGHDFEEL
UniProt Q12872: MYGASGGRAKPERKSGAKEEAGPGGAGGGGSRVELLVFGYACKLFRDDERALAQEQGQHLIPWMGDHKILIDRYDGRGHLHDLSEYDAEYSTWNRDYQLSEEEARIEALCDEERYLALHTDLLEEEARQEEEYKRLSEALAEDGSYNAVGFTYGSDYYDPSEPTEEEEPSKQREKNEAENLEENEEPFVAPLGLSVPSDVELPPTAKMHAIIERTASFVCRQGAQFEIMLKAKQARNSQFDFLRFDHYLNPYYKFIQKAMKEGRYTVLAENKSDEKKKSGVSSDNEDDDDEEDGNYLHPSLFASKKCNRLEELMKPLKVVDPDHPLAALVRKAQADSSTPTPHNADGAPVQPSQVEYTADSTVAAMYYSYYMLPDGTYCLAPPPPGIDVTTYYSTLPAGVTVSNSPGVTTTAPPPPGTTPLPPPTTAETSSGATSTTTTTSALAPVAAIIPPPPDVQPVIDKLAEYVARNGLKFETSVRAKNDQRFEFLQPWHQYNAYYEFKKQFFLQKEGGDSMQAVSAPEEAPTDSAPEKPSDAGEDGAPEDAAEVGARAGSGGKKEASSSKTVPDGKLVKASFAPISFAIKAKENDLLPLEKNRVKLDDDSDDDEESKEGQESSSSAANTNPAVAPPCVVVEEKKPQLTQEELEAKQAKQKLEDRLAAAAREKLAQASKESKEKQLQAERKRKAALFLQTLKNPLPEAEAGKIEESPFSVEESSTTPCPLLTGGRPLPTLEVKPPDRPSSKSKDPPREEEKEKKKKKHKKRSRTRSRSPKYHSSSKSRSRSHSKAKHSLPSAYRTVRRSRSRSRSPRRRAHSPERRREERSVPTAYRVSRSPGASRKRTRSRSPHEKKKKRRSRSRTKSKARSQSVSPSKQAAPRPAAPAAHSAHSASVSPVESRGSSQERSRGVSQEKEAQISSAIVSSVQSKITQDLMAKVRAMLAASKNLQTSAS
UniProt Q01105, whole entry, looked up: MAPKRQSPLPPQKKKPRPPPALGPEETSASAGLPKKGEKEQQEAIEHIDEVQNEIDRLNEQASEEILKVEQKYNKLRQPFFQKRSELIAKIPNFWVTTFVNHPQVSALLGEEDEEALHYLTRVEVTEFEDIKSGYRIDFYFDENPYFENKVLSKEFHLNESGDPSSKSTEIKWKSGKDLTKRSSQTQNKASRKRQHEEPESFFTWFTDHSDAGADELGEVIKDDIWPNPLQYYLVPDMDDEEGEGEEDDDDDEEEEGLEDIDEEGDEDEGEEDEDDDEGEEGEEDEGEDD

Assays:
Experiment in all cases: log2 fold change, soluble protein after heating vs DMSO (PISA); higher = thermal stabilisation; K562 cells, 10 uM, 30 min; active = over 0.2 and 3.5 SD of the protein, either way, in both replicates (recomputed)
[1] = compound: CS(=O)(=O)c1ccc(-c2cnc(N)c(C(=O)Nc3ccccc3)n2)cc1
In short: (§1)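 K562 cells at 2×10^6 cells/mL were treated with 10 μM compound for 30 min. Aliquots were heated for 3 min across 48°C-58°C, pooled, and extracted in PBS with 0.5% NP-40 at 4°C; soluble protein was the supernatant after 21,000xg for 90 min. Soluble protein was quantified by TMTpro 16plex LC-MS/MS with channel sums equalised, and reported as log2 fold change in thermal stability against DMSO controls, with values from duplicates.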

crizotinib = compound: C[C@@H](Oc1cc(-c2cnn(C3CCNCC3)c2)cnc1N)c1c(Cl)ccc(F)c1Cl [crizotinib]
In short: as §1

[2] = compound: C[C@@H]1COCCN1C2=NC(=NC(=C2)C3(CC3)S(=O)(=O)C)C4=C5C=CNC5=CC=C4
In short: as §1

[3] = compound: C[C@H](C1=CC=C(C=C1)C(=O)NC2=C3C=CNC3=NC=C2)N
In short: as §1

duvelisib = compound: C[C@H](Nc1ncnc2nc[nH]c12)c1cc2cccc(Cl)c2c(=O)n1-c1ccccc1 [duvelisib]
In short: as §1

gandotinib = compound: Cc1cc(Nc2cc(CN3CCOCC3)c3nc(C)c(Cc4ccc(Cl)cc4F)n3n2)n[nH]1 [gandotinib]
In short: as §1

tozasertib = compound: Cc1cc(Nc2cc(N3CCN(C)CC3)nc(Sc3ccc(NC(=O)C4CC4)cc3)n2)n[nH]1 [tozasertib]
In short: as §1

[4] = compound: Cc1cc(SCc2sc(-c3ccc(C(F)(F)F)cc3)nc2C)ccc1OCC(=O)O
In short: as §1

doramapimod = compound: Cc1ccc(-n2nc(C(C)(C)C)cc2NC(=O)Nc2ccc(OCCN3CCOCC3)c3ccccc23)cc1 [doramapimod]
In short: as §1

ispinesib = compound: Cc1ccc(C(=O)N(CCCN)[C@@H](c2nc3cc(Cl)ccc3c(=O)n2Cc2ccccc2)C(C)C)cc1 [ispinesib]
In short: as §1

bafetinib = compound: Cc1ccc(NC(=O)c2ccc(CN3CC[C@H](N(C)C)C3)c(C(F)(F)F)c2)cc1Nc1nccc(-c2cncnc2)n1 [bafetinib]
In short: as §1

[5] = compound: Cc1cccc(CC(=O)N2CCc3c2ccc(-c2cn(C)c4ncnc(N)c24)c3F)n1
In short: as §1

nilotinib = compound: Cc1cn(-c2cc(NC(=O)c3ccc(C)c(Nc4nccc(-c5cccnc5)n4)c3)cc(C(F)(F)F)c2)cn1 [nilotinib]
In short: as §1

[6] = compound: Cc1nc(Nc2n[nH]c3c2CN(C(=O)N[C@H](CN(C)C)c2ccccc2)C3(C)C)c2sccc2n1
In short: as §1

dasatinib = compound: Cc1nc(Nc2ncc(C(=O)Nc3c(C)cccc3Cl)s2)cc(N2CCN(CCO)CC2)n1 [dasatinib]
In short: as §1

[7] = compound: Cc1ncc(-c2ccnc(Nc3ccc(S(C)(=O)=O)cc3)n2)n1C(C)C
In short: as §1

[8] = compound: Cn1cc(-c2ccc3c(c2)CCN3C(=O)Cc2cccc(C(F)(F)F)c2)c2c(N)ncnc21
In short: as §1

[9] = compound: Cn1cc(-c2ccc3nnc(C(F)(F)c4ccc5ncccc5c4)n3n2)cn1
In short: as §1

tipifarnib = compound: Cn1cncc1[C@@](N)(c1ccc(Cl)cc1)c1ccc2c(c1)c(-c1cccc(Cl)c1)cc(=O)n2C [tipifarnib]
In short: as §1

mubritinib = compound: FC(F)(F)c1ccc(/C=C/c2nc(COc3ccc(CCCCn4ccnn4)cc3)co2)cc1 [mubritinib]
In short: as §1

Measured: log2 fold change

SERPINB1 (UniProt P30740)
inactive: [1] 0.013 | crizotinib -0.012 | [2] 0.073 | [3] -0.037 | duvelisib 0.025 | gandotinib -0.164 | tozasertib 0.011 | [4] 0.016 | doramapimod 0 | ispinesib 0.054 | bafetinib -0.042 | [5] 0.038 | nilotinib -0.017 | [6] 0.001 | dasatinib -0.026 | [7] -0.002 | [8] 0.047 | [9] -0.02 | tipifarnib -0.027 | mubritinib 0.052

SEPTIN6 (UniProt Q14141)
inactive: [1] 0.018 | crizotinib 0.013 | [2] 0.018 | [3] -0.028 | duvelisib -0.001 | gandotinib -0.085 | tozasertib -0.011 | [4] -0.008 | doramapimod -0.008 | ispinesib 0.016 | bafetinib -0.02 | [5] 0.013 | nilotinib -0.001 | [6] 0 | dasatinib 0.027 | [7] 0.019 | [8] 0.064 | [9] -0.011 | tipifarnib -0.006 | mubritinib -0.008

SEPTIN8 (UniProt Q92599)
inactive: [1] -0.03 | crizotinib 0.062 | [2] 0.078 | [3] -0.049 | duvelisib 0.058 | gandotinib -0.024 | tozasertib -0.028 | [4] -0.003 | doramapimod -0.015 | ispinesib 0.05 | bafetinib -0.009 | [5] -0.022 | nilotinib -0.009 | [6] 0.019 | dasatinib -0.001 | [7] 0.001 | [8] 0.032 | [9] 0.024 | tipifarnib -0.026 | mubritinib 0.027

SIRT1 (UniProt Q96EB6)
inactive: [1] 0.043 | crizotinib 0.042 | [2] -0.012 | [3] -0.044 | duvelisib 0.026 | gandotinib -0.03 | tozasertib 0.032 | [4] 0.015 | doramapimod 0.006 | ispinesib 0.012 | bafetinib 0.04 | [5] 0.044 | nilotinib 0.008 | [6] -0.053 | dasatinib -0.099 | [7] 0.062 | [8] -0.013 | [9] -0.007 | tipifarnib -0.031 | mubritinib -0.009

SEPTIN2 isoform 2 (UniProt Q15019)
inactive: [1] 0.041 | crizotinib 0.051 | [2] 0.056 | [3] -0.026 | duvelisib 0.01 | gandotinib 0.018 | tozasertib -0.018 | [4] -0.027 | doramapimod 0.009 | ispinesib 0.032 | bafetinib -0.017 | [5] -0.034 | nilotinib 0.007 | [6] 0.017 | dasatinib 0.027 | [7] -0.014 | [8] 0.019 | [9] 0.003 | tipifarnib 0.028 | mubritinib 0.042

SEPTIN4 isoform 4 (UniProt O43236)
inactive: [1] -0.074 | crizotinib -0.051 | [2] 0.129 | [3] -0.243 | duvelisib 0.019 | gandotinib 0.014 | tozasertib -0.035 | [4] 0.021 | doramapimod 0.282 | ispinesib 0.256 | bafetinib 0.095 | [5] 0.052 | nilotinib 0.007 | [6] -0.04 | dasatinib 0.008 | [7] 0.031 | [8] 0.036 | [9] -0.044 | tipifarnib -0.055 | mubritinib 0.051

SH3BGRL3 (UniProt Q9H299)
inactive: [1] 0.013 | crizotinib 0.084 | [2] 0.139 | [3] -0.102 | duvelisib 0.036 | gandotinib -0.019 | tozasertib 0.035 | [4] -0.023 | doramapimod 0.021 | ispinesib 0 | bafetinib -0.026 | [5] 0 | nilotinib -0.01 | [6] -0.013 | dasatinib 0.024 | [7] 0.005 | [8] 0.146 | [9] -0.057 | tipifarnib -0.103 | mubritinib 0.045

SIAE (UniProt Q9HAT2)
inactive: [1] 0.084 | crizotinib -0.017 | [2] -0.035 | [3] 0.103 | duvelisib 0.265 | gandotinib -0.221 | tozasertib -0.108 | [4] -0.094 | doramapimod 0.079 | ispinesib -0.254 | bafetinib -0.026 | [5] -0.056 | nilotinib -0.113 | [6] -0.026 | dasatinib 0.199 | [7] -0.069 | [8] -0.023 | [9] 0.111 | tipifarnib 0.094

SGO1 (UniProt Q5FBB7)
inactive: [1] 0.036 | crizotinib 0.056 | [2] -0.005 | [3] -0.028 | duvelisib 0.074 | gandotinib -0.034 | tozasertib -0.036 | [4] -0.033 | doramapimod -0.016 | ispinesib -0.043 | bafetinib -0.047 | [5] 0.1 | nilotinib 0.019 | [6] -0.052 | dasatinib 0.015 | [7] 0.004 | [8] 0.016 | [9] 0.03 | tipifarnib 0.031 | mubritinib 0.079

SF3A2 (UniProt Q15428)
inactive: [1] 0.023 | crizotinib 0.064 | [2] -0.028 | [3] 0.081 | duvelisib 0.026 | gandotinib -0.1 | tozasertib 0.036 | [4] 0.031 | doramapimod 0.013 | ispinesib 0.105 | bafetinib 0.023 | [5] -0.016 | nilotinib 0.007 | [6] -0.047 | dasatinib 0.012 | [7] 0.023 | [8] -0.074 | [9] -0.117 | tipifarnib -0.044 | mubritinib 0.04

SFXN2 (UniProt Q96NB2)
inactive: [1] 0.049 | crizotinib 0.003 | [2] 0.243 | [3] -0.042 | duvelisib 0.057 | gandotinib 0.006 | tozasertib -0.047 | [4] -0.068 | doramapimod -0.028 | ispinesib -0.039 | bafetinib -0.145 | [5] -0.013 | nilotinib 0 | [6] -0.015 | dasatinib -0.029 | [7] -0.007 | [8] 0.054 | [9] 0.046 | tipifarnib 0.058 | mubritinib 0.06

Two entries drawn at random from those above, as already listed:
SF3A2 (UniProt Q15428)
inactive: [1] 0.023 | crizotinib 0.064 | [2] -0.028 | [3] 0.081 | duvelisib 0.026 | gandotinib -0.1 | tozasertib 0.036 | [4] 0.031 | doramapimod 0.013 | ispinesib 0.105 | bafetinib 0.023 | [5] -0.016 | nilotinib 0.007 | [6] -0.047 | dasatinib 0.012 | [7] 0.023 | [8] -0.074 | [9] -0.117 | tipifarnib -0.044 | mubritinib 0.04

SH3BGRL3 (UniProt Q9H299)
inactive: [1] 0.013 | crizotinib 0.084 | [2] 0.139 | [3] -0.102 | duvelisib 0.036 | gandotinib -0.019 | tozasertib 0.035 | [4] -0.023 | doramapimod 0.021 | ispinesib 0 | bafetinib -0.026 | [5] 0 | nilotinib -0.01 | [6] -0.013 | dasatinib 0.024 | [7] 0.005 | [8] 0.146 | [9] -0.057 | tipifarnib -0.103 | mubritinib 0.045

Continuation.

SIGMAR1 (UniProt Q99720)
inactive: [1] -0.038 | crizotinib 0.029 | [2] -0.053 | [3] 0.045 | duvelisib 0.013 | gandotinib 0.025 | tozasertib 0.011 | [4] -0.068 | doramapimod 0.084 | ispinesib 0.07 | bafetinib -0.029 | [5] -0.133 | nilotinib 0.015 | [6] 0.006 | dasatinib -0.019 | [7] -0.033 | [8] -0.04 | [9] -0.002 | tipifarnib 0.131 | mubritinib 0.029

SERPINI1 (UniProt Q99574)
inactive: [1] -0.024 | crizotinib 0.149 | [2] 0.039 | [3] -0.086 | duvelisib 0.016 | gandotinib 0.184 | tozasertib -0.027 | [4] -0.048 | doramapimod -0.012 | ispinesib 0.039 | bafetinib 0.056 | [5] -0.078 | nilotinib 0.02 | [6] -0.015 | dasatinib 0.032 | [7] -0.033 | [8] -0.03 | [9] 0.013 | tipifarnib 0.053 | mubritinib 0.121

SFSWAP isoform 2 (UniProt Q12872)
inactive: [1] -0.114 | crizotinib 0.006 | [2] 0.019 | [3] -0.172 | duvelisib 0.078 | gandotinib -0.032 | tozasertib 0.095 | [4] 0.035 | doramapimod -0.036 | ispinesib 0.019 | bafetinib 0.139 | [5] 0.007 | nilotinib -0.022 | [6] -0.267 | dasatinib 0.051 | [7] -0.068 | [8] -0.013 | [9] -0.026 | tipifarnib 0.104 | mubritinib -0.048

SEL1L (UniProt Q9UBV2)
inactive: [1] -0.03 | crizotinib 0.016 | [2] 0.043 | [3] 0.031 | duvelisib -0.006 | gandotinib 0.068 | tozasertib -0.01 | [4] -0.002 | doramapimod 0.031 | ispinesib 0.022 | bafetinib 0.036 | [5] 0.001 | nilotinib 0.018 | [6] -0.006 | dasatinib 0.007 | [7] -0.015 | [8] -0.029 | [9] 0.02 | tipifarnib -0.008 | mubritinib -0.013

SET isoform 2 (UniProt Q01105)
inactive: [1] -0.008 | crizotinib -0.003 | [2] 0.012 | [3] -0.076 | duvelisib -0.069 | gandotinib 0.034 | tozasertib -0.014 | [4] 0.015 | doramapimod -0.031 | ispinesib -0.047 | bafetinib -0.024 | [5] -0.036 | nilotinib 0.002 | [6] 0.001 | dasatinib -0.012 | [7] 0.004 | [8] 0.022 | [9] -0.048 | tipifarnib 0.019 | mubritinib 0.049
